No constants are given. Whether binding was seen depends on the method and setting. Binding seen in cells or lysates may run through a third protein. Some results given as binding are weak or reduced against the parent protein; the word gives no strength.
Target: GATA binding protein 1 (human (endogenous in KU-812)) (UniProt P15976)
Assay: co-IP; KU-812 cell lysate incubated with anti-GATA-1 antibody and protein A/G-conjugated beads at 4 °C overnight, washed three times with PBS; western blot with anti-FOG-1 and anti-RUNX1; cells treated with wogonin (0, 5, 10 and 20 μM) for 72 h

Sequences of proteins named here, by UniProt entry; tags and fusion partners are left off.
UniProt P15976: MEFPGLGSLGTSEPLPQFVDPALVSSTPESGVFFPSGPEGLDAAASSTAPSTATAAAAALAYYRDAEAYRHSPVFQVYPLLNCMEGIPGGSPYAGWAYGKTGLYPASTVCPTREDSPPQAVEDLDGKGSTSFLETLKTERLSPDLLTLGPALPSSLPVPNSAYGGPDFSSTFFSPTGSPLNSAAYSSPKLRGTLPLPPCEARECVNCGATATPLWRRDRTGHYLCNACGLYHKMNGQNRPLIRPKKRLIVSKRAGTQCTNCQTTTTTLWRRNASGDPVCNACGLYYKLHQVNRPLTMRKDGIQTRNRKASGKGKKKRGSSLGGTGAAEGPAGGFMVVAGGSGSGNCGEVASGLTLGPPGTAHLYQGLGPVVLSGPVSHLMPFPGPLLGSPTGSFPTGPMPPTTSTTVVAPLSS
UniProt Q01196: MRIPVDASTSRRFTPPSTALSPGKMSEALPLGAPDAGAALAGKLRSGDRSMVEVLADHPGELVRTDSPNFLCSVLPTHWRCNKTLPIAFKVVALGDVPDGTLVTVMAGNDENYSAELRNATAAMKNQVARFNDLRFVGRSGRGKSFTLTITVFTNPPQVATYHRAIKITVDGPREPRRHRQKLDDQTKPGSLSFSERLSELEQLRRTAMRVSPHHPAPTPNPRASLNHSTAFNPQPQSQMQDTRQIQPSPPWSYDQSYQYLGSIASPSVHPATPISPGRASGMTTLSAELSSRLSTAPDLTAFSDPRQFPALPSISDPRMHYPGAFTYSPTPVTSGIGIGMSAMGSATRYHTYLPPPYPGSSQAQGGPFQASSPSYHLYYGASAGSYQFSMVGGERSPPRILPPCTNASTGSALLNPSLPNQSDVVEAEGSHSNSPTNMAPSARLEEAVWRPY

With “Runt-related transcription factor 1 (from UniProt Q01196 1-453)” the binding was “binds”.

B1: friend of GATA-1 (protein, UniProt Q8IX07 1-1006)
chain: MSRRKQSNPRQIKRSLGDMEAREEVQLVGASHMEQKATAPEAPSPPSADVNSPPPLPPPTSPGGPKELEGQEPEPRPTEEEPGSPWSGPDELEPVVQDGQRRIRARLSLATGLSWGPFHGSVQTRASSPRQAEPSPALTLLLVDEACWLRTLPQALTEAEANTEIHRKDDALWCRVTKPVPAGGLLSVLLTAEPHSTPGHPVKKEPAEPTCPAPAHDLQLLPQQAGMASILATAVINKDVFPCKDCGIWYRSERNLQAHLLYYCASRQGTGSPAAAATDEKPKETYPNERVCPFPQCRKSCPSASSLEIHMRSHSGERPFVCLICLSAFTTKANCERHLKVHTDTLSGVCHSCGFISTTRDILYSHLVTNHMVCQPGSKGEIYSPGAGHPATKLPPDSLGSFQQQHTALQGPLASADLGLAPTPSPGLDRKALAEATNGEARAEPLAQNGGSSEPPAAPRSIKVEAVEEPEAAPILGPGEPGPQAPSRTPSPRSPAPARVKAELSSPTPGSSPVPGELGLAGALFLPQYVFGPDAAPPASEILAKMSELVHSRLQQGAGAGAGGAQTGLFPGAPKGATCFECEITFSNVNNYYVHKRLYCSGRRAPEDAPAARRPKAPPGPARAPPGQPAEPDAPRSSPGPGAREEGAGGAATPEDGAGGRGSEGSQSPGSSVDDAEDDPSRTLCEACNIRFSRHETYTVHKRYYCASRHDPPPRRPAAPPGPPGPAAPPAPSPAAPVRTRRRRKLYELHAAGAPPPPPPGHAPAPESPRPGSGSGSGPGLAPARSPGPAADGPIDLSKKPRRPLPGAPAPALADYHECTACRVSFHSLEAYLAHKKYSCPAAPPPGALGLPAAACPYCPPNGPVRGDLLEHFRLAHGLLLGAPLAGPGVEARTPADRGPSPAPAPAASPQPGSRGPRDGLGPEPQEPPPGPPPSPAAAPEAVPPPPAPPSYSDKGVQTPSKGTPAPLPNGNHRYCRLCNIKFSSLSTFIAHKKYYCSSHAAEHVK
In the case of B1, the binding is reported as “binds”.

— publication PMC8351106
